The target in assay [1] is T1, tandem SH3 domains of STAC3 (SH3 and cysteine-rich domain-containing protein 3) (human) (UniProt Q96MF2).
T1 sequence: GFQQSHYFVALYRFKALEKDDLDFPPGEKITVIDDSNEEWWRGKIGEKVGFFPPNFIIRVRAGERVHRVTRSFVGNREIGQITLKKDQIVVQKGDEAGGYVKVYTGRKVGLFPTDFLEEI
In words: NMR titration; 1H-15N HSQC of ~0.2 mM 15N-labelled STAC construct titrated with C3 peptide (0.5:1, 1:1, 2:1, 4:1); 27 mM NaH2PO4, 30 mM Na2HPO4, 150 mM NaCl, 100 mM glutamic acid, 100 mM arginine, 3 mM EDTA, pH 6.8; 20°C; CSP cutoff 0.1 ppm; both purified.

Amino acid sequences for entries named in this document (tags omitted). Residues count along the entry.
UniProt P07293, residues 740-764: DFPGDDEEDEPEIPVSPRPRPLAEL

Assay [2] addresses T2, tandem SH3 domains of STAC2 (human) (UniProt Q6ZMT1).
T2 sequence: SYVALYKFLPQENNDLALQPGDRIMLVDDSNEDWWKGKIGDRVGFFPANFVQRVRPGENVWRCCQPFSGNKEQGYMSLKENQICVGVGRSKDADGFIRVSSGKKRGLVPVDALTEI
Described as above.

For assay [3], the target named is T3, individual second SH3 domain (SH3_2) of STAC3 (human) (UniProt Q96MF2).
T3 sequence: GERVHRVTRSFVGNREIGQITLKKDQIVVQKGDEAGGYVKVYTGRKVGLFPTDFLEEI
In words: condition: up to 4:1 ratio of titrant to ~0.2 mM 15N-labelled protein; NMR titration; 1H-15N HSQC of ~0.2 mM 15N-labelled STAC construct titrated with C3 peptide (0.5:1, 1:1, 2:1, 4:1); 27 mM NaH2PO4, 30 mM Na2HPO4, 150 mM NaCl, 100 mM glutamic acid, 100 mM arginine, 3 mM EDTA, pH 6.8; 20°C; CSP cutoff 0.1 ppm; both purified.

Results are given in words; binding and its absence hold for the method and conditions named. Some entries that bind do so weakly or less than the wild type.

These results are taken from paper PMC9019556, “Molecular interactions of STAC proteins with skeletal muscle dihydropyridine receptor and excitation‐contraction coupling” (Protein Science : A Publication of the Protein Society, 2022).

In the case of “II–III loop C3 peptide (residues 740–764 of the DHPR α1S subunit) (from UniProt P07293 740-764)”, the binding result in assay [1] is given as “binds”; in assay [2], “binds”; in assay [3], “no binding”.
